{"source": "patent US20210002611A1", "about": "“IMPROVED ALPHA-BETA T PROCESSED CELL PRODUCTION METHOD” (OSAKA UNIVERSITY, priority 2018, published 2021)", "tested_on": "sugar chains of αβ T processed cells", "experiment": "LC-MS mass spectrometry analysis of sugar chains on cell surface", "type": "cell-based, human", "conditions": "cells cultured with 2 mM 2DG", "excerpt": "From the αβ T processed cells, sugar chains were purified and labeled by using BlotGlyco (Sumitomo Bakelite Co., Ltd.), and then the purified and labeled sugar chains were subjected to LC-MS mass spectrometry analysis (FIG. 5A).", "data": [{"smiles": "OCC1O[C@H](O)C[C@@H](O)[C@@H]1O", "note": "(mixture of isomers) [2DG, 2-deoxy-d-glucose]", "values": [{"measurement": "Amount of sugar chains per cell, peak 6 (Hex)2(HexNAc)2(Deoxyhexose)1(Sulph)1 + (Man)3(GlcNAc)2", "result": 606, "unit": "fmol"}]}]}
